According to PubChem BioAssay AID1688 (National Center for Advancing Translational Sciences (NCATS), 2009):
Among all 220,000 compounds or so, about 2,400 (1.1%) were called active. Inconclusive means that the source gave no clear call. Such entries were picked first, then a sample of the others. Calls come from the whole dose curve; as a rule, active = well fitted inhibition curve with a large enough effect; inconclusive = small, poorly fitted or top-dose-only effect, or effect the other way; inactive = no such curve, though single readings can be large or run the other way. Potencies beside an inconclusive call are fits to weak or partial responses and may not hold up.

Test: qHTS Multiplex Assay to Identify Dual Action Probes in a Cell Model of Huntington: Aggregate Formation (GFP); note: nearly all actives have a fitted effect of over 60% in size
Conditions: PC12 HttQ103-GFP aggregates, Acumen cytometry, 40 h; activity change, negative = inhibition: at 46.1 µM (top of the series) unless noted
Method in brief: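 PC12/HTTQ103-GFP, ecdysone-inducible; teb 100 nM; cpd qHTS titration; GFP aggregates read on laser cytometer, Ex 488/Em 500-530 nm.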
% is set by controls: 0 for no effect and ±100 for the full control effect; potency is the fitted concentration of half-maximal effect.

SMILES	Potency	activity change, negative = inhibition
COc1ccccc1NS(=O)(=O)c1cc(NC(=O)c2ccc3c(c2)OCCO3)ccc1C	inactive	–
O=C(NC(NC(=S)Nc1ccccc1C(=O)O)C(Cl)(Cl)Cl)c1ccccc1 (stereo not given)	inactive	–
CCCC1=C(C(=O)OCC)C(c2ccc(N(C)C)cc2)n2ncnc2N1 (stereo not given)	inactive	–
CCc1cc2ccc(C)cc2nc1SCC(=O)Nc1cc(OC)c(OC)cc1C(=O)O	inconclusive: 31.6 µM [activator, single point]	–
O=C(C(Cc1ccccc1)N1C(=O)c2ccccc2C1=O)N1c2ccccc2CCc2ccccc21 (stereo not given)	inactive	–
C[N+]1(CCOc2ccc([N+](=O)[O-])cc2)CCOCC1	inactive	–
CN(C)c1ccc(N=Nc2ccccc2C(=O)OCC(=O)N(C)C2CCCCC2)cc1	inconclusive: 15.8 µM [inhibitor, single point]	–
CN(C)c1ccc(-c2nc3ccccc3n2C)cc1	inconclusive: 11.2 µM [inhibitor, single point]	–
CC(C)(C)[C@@H]1C=C(C(=O)Nc2ccccc2)O[C@H](OCc2ccc(CO)cc2)C1	–	inactive: 38% [at 9.22 µM]
Cc1cccc(C(=O)N2CCN(c3ccc(C(F)(F)F)cn3)CC2)c1C	active: 15.8 µM	–
O=C(CN1CCN(c2ccccn2)CC1)Nc1ccc(Oc2ccccc2)cc1	inactive	–
COc1cccc(NC(=O)CCc2nc(-c3ccccc3F)no2)c1	inconclusive: 0.631 µM [inhibitor, full curve, poor fit]	–
Nc1c(C(=O)Nc2ccc(Cl)cc2)oc2ccccc12	inconclusive: 3.55 µM [activator, single point]	–
CCCc1nc(SCC(=O)NNC(=O)c2ccc(OC)cc2)c2ccccc2n1	inactive	–
CCN1C(=O)/C(=C/N2CCc3ccccc32)SC1=S	inconclusive: 1.26 µM [inhibitor, partial curve]	–
O=C(Nc1ccc(/C=C/c2nc3ccccc3o2)cc1)c1c(F)cccc1F	inconclusive: 1.26 µM [activator, single point]	–
COc1ccc(C2c3ccc(O)cc3Oc3ncn4nc(-c5cccnc5)nc4c32)cc1OC (stereo not given)	–	inactive: 23% [at 9.22 µM]
COc1ccc(NC(=S)NC(NC(=O)c2cccc(Cl)c2)C(Cl)(Cl)Cl)c([N+](=O)[O-])c1 (stereo not given)	active: 28.2 µM	–
COc1ccc(-c2csc(NC(=O)C3CCCCN3S(=O)(=O)c3ccccc3)n2)cc1 (stereo not given)	inconclusive: 35.5 µM [inhibitor, single point]	–
CCCOc1ccc(C(=O)NNC(=S)NC(C)=O)cc1	inconclusive: 8.91 µM [inhibitor, partial curve]	–

Some of the entries above, set out differently.
SMILES,Potency,"activity change, negative = inhibition"
O=C(NC(NC(=S)Nc1ccccc1C(=O)O)C(Cl)(Cl)Cl)c1ccccc1 (stereo not given),inactive,–
CCCC1=C(C(=O)OCC)C(c2ccc(N(C)C)cc2)n2ncnc2N1 (stereo not given),inactive,–
